Patent publication US9169219B2, “Herbicidally active 4-nitro-substituted N-(tetrazol-5-yl)-, N-(triazol-5-yl)-, and N-(1,3,4-0XADIAZOL-2-yl)aryl carboxylic acid amides” (BAYER INTELLECTUAL PROPERTY GMBH, priority 2012, dated 2015)
Some results were stated once for a whole list of compounds, not compound by compound.

How the values were obtained:
Veronica persica = assay: Pre-emergence herbicidal action against weed plants; format: in vivo; conditions: 320 g/ha, visual assessment after 3 weeks vs untreated controls (100% = plants have died, 0% = like control plants)
Matricaria inodora = assay: as above; format: in vivo; conditions: 320 g/ha, visual assessment after 3 weeks vs untreated controls (100% = plants have died, 0% = like control plants)

Structure (SMILES)	herbicidal activity against Veronica persica (Veronica persica)	herbicidal activity against Matricaria inodora (Matricaria inodora)
Cn1nnnc1NC(=O)c1ccc([N+](=O)[O-])c(OCC2COCCO2)c1Br (stereo not drawn) [1-34]	at least 80%	at least 80%
Cn1nnnc1NC(=O)c1ccc([N+](=O)[O-])c(OCC2COCCO2)c1Cl (stereo not drawn) [1-77]	at least 80%	at least 80%
Cn1nnnc1NC(=O)c1ccc([N+](=O)[O-])c(OCC2OCCO2)c1Cl [1-78]	at least 80%	at least 80%
